Test results published in patent US20240327538A1.
Results are given in words; binding and its absence hold for the method and conditions named. Some results given as binding are weak or reduced against the parent protein; the word gives no strength.

By UniProt entry, the sequences of proteins in these tests, tags left out. Residues count along the entry.
UniProt Q04609, residues 44-750: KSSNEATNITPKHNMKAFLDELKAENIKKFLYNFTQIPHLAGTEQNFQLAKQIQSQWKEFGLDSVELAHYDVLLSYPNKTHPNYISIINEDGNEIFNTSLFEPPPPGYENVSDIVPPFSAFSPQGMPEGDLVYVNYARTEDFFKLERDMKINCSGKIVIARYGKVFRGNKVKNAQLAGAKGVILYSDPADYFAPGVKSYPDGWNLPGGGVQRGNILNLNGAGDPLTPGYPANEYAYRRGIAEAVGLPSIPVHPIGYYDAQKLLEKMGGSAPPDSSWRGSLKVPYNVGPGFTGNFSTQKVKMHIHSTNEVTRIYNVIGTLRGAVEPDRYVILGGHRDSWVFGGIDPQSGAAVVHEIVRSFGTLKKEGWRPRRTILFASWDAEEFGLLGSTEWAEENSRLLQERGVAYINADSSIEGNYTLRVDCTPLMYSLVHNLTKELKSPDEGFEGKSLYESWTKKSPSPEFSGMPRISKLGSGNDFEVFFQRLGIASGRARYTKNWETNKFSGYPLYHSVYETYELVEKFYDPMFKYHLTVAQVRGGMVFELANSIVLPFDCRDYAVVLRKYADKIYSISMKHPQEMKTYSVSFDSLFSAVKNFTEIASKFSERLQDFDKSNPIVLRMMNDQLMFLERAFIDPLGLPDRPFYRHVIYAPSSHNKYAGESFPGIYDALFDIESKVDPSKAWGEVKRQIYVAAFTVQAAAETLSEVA

Molecular target: human PSMA (human) (UniProt Q04609)
Assay: relative to PSMA.2; uTCE with CD3.23

B1: AC2717 (PSMA.5 with CD3.23) (bispecific antibody, V domains shown)
VHH: QVQLVESGGGVVQPGRSLRLSCAASGRTFGIYVMGWVRQAPGKEREFVAAISWSGSNRLVSDSVKGRFTISRDNSKNTLYLQMNSLRAEDTAVYYCAASNRLYGRTWYDFNESDYWGQGTQVTVSS
VL: ELVVTQEPSLTVSPGGTVTLTCRSSNGAVTSSNYANWVQQKPGQAPRGLIGGTNKRAPGTPARFSGSLLGGKAALTLSGVQPEDEAVYYCALWYPNLWVFGGGTKLTVL
VH: EVQLLESGGGIVQPGGSLKLSCAASGFTFNTYAMNWVRQAPGKGLEWVARIRSKYNNYATYYADSVKDRFTISRDDSKNTVYLQMNNLKTEDTAVYYCVRHENFGNSYVSWFAHWGQGTLVTVSS
  binding: binds
